Measurements reported in patent publication US20030194373A1 (priority 1998, published 2003).

Test: general procedure: Fmoc solid-phase peptide synthesis; preloaded 1,3-diaminopropyltrityl resin; 0.50 M 14BTU/HOBt/DMF with 2.0M DIEA/NMP
Settings: whole synthesis, scale 0.25 mmol

With dmG-Ser(Bu)-Cys(Acm)-Gly-NH-(CH2)3-NH2 the crude mass was 408 mg and the crude yield was 85.5%.
